Laboratory results reported in paper PMC12040169 (PLOS Biology, 2025).
The other results are listed elsewhere or left out.

tested on: T1, CTL2-GFP (C. trachomatis L2/434/Bu, GFP-expressing); design: species or system HeLa; Intracellular C. trachomatis growth in HeLa cells, bulk GFP fluorescence relative to DMSO; details: bulk GFP, single well; 28.5 h, 10 µM; inhibitor
T1 construct: L2/434/Bu, GFP-expressing

Compound | % of control remaining [%]
CC(C)(C)c1cc(C[C@H]2CNCC[C@H]2CC(=O)N2CCN(c3ccc(F)cc3)CC2)no1 [CBK288800] | 129.101
CCc1ccccc1NC(=O)Cn1ncnc1Sc1nc2c(c(=O)n(C)c(=O)n2C)n1C [CBK265963] | 134.2
Cc1ccc(S(=O)(=O)Nc2ccccc2C(=O)O)cc1[N+](=O)[O-] [CBK042374] | 111.18
CN(C)CCC1CCCCN1C(=O)C1C2CCCCC21 (centres unmarked) [CBK282055] | 169.788
COc1cccc(C2SCC(=O)Nc3[nH]nc(C)c32)c1 (centres unmarked) [CBK287981] | 116.59
Cc1nn(Cc2ccc(F)cc2)c(=O)c2cc3sccc3n12 [CBK284059] | 137.491
O=C(O)C(Cc1c[nH]c2ccccc12)NCC1CCCCC1 (centres unmarked) [CBK287238] | 121.415
COc1ccc(Nc2ncnc3oc(C)c(C)c23)cc1 [CBK288163] | 128.169
Nn1c(-c2cccs2)nc2ccccc2c1=O [CBK003650] | 130.734
CS(=O)(=O)N1CCC(Oc2nccnc2OCc2ccc(Cl)c(Cl)c2)CC1 [CBK144910] | 110.814
NC1=NC(c2ccc3c(c2)OCO3)n2c(nc3ccccc32)N1 (centres unmarked) [CBK269906] | 141.559
CN(C(=O)c1c[nH]nc1C1CCCN(Cc2cc3ccccc3o2)C1)C1CCCCC1 (centres unmarked) [CBK286492] | 127.09
Cc1ccc2cc(CN(CCN(C)C)C(=S)Nc3ccccc3)c(=O)[nH]c2c1 [CBK134909] | 129.682
CN(C)CCCN1CCCC2(CCN(C(=O)c3cc(F)c(F)cc3F)C2)C1 (centres unmarked) [CBK132005] | 100.279
CC(C(=O)NC1CCCN(CC(F)(F)F)C1)n1cnc2ccccc21 (centres unmarked) [CBK304185] | 90.9823
Oc1cccc(-c2nccnc2N[C@@H]2CCN(Cc3ccccc3)C2)c1 [CBK037017] | 204.03
CC(NC(=O)c1ccccc1Cn1cncn1)C1CC2CCC1C2 (centres unmarked) [CBK281654] | 137.945
COc1cc(Nc2cncc(-c3ccccc3CO)n2)cc(OC)c1OC [CBK037160] | 101.832
NCC1CCN(c2cc(C(F)(F)F)c3scc(C(=O)NCc4cccc(F)c4F)c3n2)CC1 [CBK036391T] | 35.2527
Cc1ncsc1C(=O)N1CCC(c2cccc(Cc3ccc(C(F)(F)F)cc3)n2)CC1 [CBK286216] | 81.2533
Cc1ccc(S(=O)(=O)Oc2c(C=C3C(=O)CC(C)(C)CC3=O)[nH]c3ccccc23)cc1 [CBK263464] | 118.346
CC(Cc1ccc(N(C)C)cc1)NC(=O)C1CN(S(=O)(=O)c2ccc(F)cc2)C1 (centres unmarked) [CBK285942] | 118.704
COC(=O)c1ccc(NC(=O)c2oc3ccc(Br)cc3c2C)cc1 [CBK296758] | 119.74
O=C(c1ccccc1)c1ccccc1-n1nccn1 [CBK013849] | 85.6094
Cc1onc(-c2ccccc2)c1C(=O)N1CCC(C(N)=O)CC1 [CBK158721] | 117.359

Random excerpt: two compounds from above.
Compound | % of control remaining [%]
COc1cc(Nc2cncc(-c3ccccc3CO)n2)cc(OC)c1OC [CBK037160] | 101.832
O=C(O)C(Cc1c[nH]c2ccccc12)NCC1CCCCC1 (centres unmarked) [CBK287238] | 121.415

Next part:

Compound | % of control remaining [%]
Cc1nn2cc(CNC(=O)C3Cc4ccccc4O3)nc2s1 (centres unmarked) [CBK307498] | 108.64
COC(=O)c1ccccc1NC(=O)C1CCCN(S(=O)(=O)c2cc(Cl)ccc2Cl)C1 (centres unmarked) [CBK268797] | 99.8838
CCOc1cccc(-c2cncc(N3CCCC3CO)n2)c1 (centres unmarked) [CBK066004] | 121.988
Cc1cc2nc(SCCO)[nH]c2cc1C [CBK027546] | 121.292
CC(CNC(=O)Cc1ccc(C(F)(F)F)cc1[N+](=O)[O-])N1CCc2ccccc2C1 (centres unmarked) [CBK298292] | 161.328
CCc1nc2ccc(C(=O)Nc3ccc(NC(C)=O)cc3)cn2c1N(C)C(=O)Cc1ccccc1 [CBK146855] | 122.604
NC(=O)c1ccccc1/N=C/c1ccc([N+](=O)[O-])o1 [CBK261675] | 44.7967
O=C(CCn1c(CO)nc2ccccc21)c1ccccc1 [CBK296947] | 119.682
COC(=O)C1=C(C)N(c2ccc(C(=O)O)cc2)C(=O)NC1c1cccc(OC)c1OC (centres unmarked) [CBK295355] | 153.944
Cn1cccc1C(=O)OCC(=O)N1CCCCC1 [CBK305903] | 113.419
Fc1ccc(CCNc2ccc3nncn3n2)cc1 [CBK287909] | 106.074
CC(NC(=O)C1CCN(Cc2cccs2)CC1)c1ccc(F)cc1 (centres unmarked) [CBK148041] | 171.19
O=C1CC(C(=O)N2CCc3ncc(Cl)cc3C2)c2ccccc2N1 (centres unmarked) [CBK284976] | 132.624
Cc1ncncc1C(=O)N1CCc2sccc2C1c1ccccc1 (centres unmarked) [CBK281386] | 94.8147
Cc1ccn2c(CN3CCC(n4nc(C)cc4C)CC3)c(C)nc2c1 [CBK281616] | 138.792
OCCOc1cccc(-c2nnco2)c1 [CBK000033] | 122.453
Cc1oc2[nH]c(CN(C)CCOc3ccc(Cl)cc3)nc(=N)c2c1C(=O)O [CBK279463] | 138.173
CC1CCCCN1C(=O)CCn1c(-c2cccnc2)cc2cccnc21 (centres unmarked) [CBK282692] | 120.473
CN1CCN(CC(=O)Nc2sc3c(c2C(=O)NCc2ccccc2)CCCC3)CC1 [CBK268207] | 105.587
CC(CNC(=O)c1cccn(CC(=O)Nc2ccc(F)cc2)c1=O)N1CCCCCC1 (centres unmarked) [CBK286123] | 119.363
O=C(O)c1cccc(NC(=O)c2c(C(=O)O)cccc2[N+](=O)[O-])c1 [CBK261096] | 100
COc1cc(C(O)CNC(=O)c2cnc(-c3ccc(F)cc3)c(-c3cccc(N)c3)c2)ccc1O (centres unmarked) [CBK038032] | 68.1485
O=C1C2C(c3ccccc3Cl)OC3(C(=O)c4ccccc4C3=O)C2C(=O)N1c1ccc([N+](=O)[O-])cc1 (centres unmarked) [CBK262425] | 120.901
COc1cc(/C=C2\C=C(c3ccc(-c4ccccc4)cc3)OC2=O)ccc1O [CBK265594] | 100
COc1ccc(NC(=O)/C(=C\c2ccc3c(c2)OCO3)NC(=O)c2ccco2)cc1 [CBK263607] | 100
